From patent US12103939B2, “Solid pharmaceutical gold-based composition” (KING FAHD UNIVERSITY OF PETROLEUM AND MINERALS, priority 2019, dated 2024)

How the values were obtained:
guanine = experiment: Voltammetry, interaction with guanine; conditions: 0.5 mM guanine, pH 6.8
[1] = Voltammetry, interaction with tryptophan; conditions: 0.5 mM tryptophan, pH 6.8

## Oc1ccc[n+]2c1-c1c(O)ccc[n+]1[Au-]2([Cl])[Cl].[Cl-] [C1, [Au(BPYH)(Cl)2]Cl]
guanine; CV, 10 μM complex
  Voltammetry peak potential: 0.9602 mV
guanine; CV, 40 μM complex
  Voltammetry peak potential: 0.9824 mV
guanine; CV, 100 μM complex
  Voltammetry peak potential: 1.0222 mV
guanine; SWV, 10 μM complex
  Voltammetry peak potential: 0.9444 mV
guanine; SWV, 40 μM complex
  Voltammetry peak potential: 0.9596 mV
guanine; SWV, 100 μM complex
  Voltammetry peak potential: 0.9948 mV

## [Cl-].[Cl-].[Cl][Au-]1([Cl])[n+]2ccc[n+]3c2-c2[n+]1ccc[n+]2[Au-]3([Cl])[Cl] [C5, [Au2(BPM)(Cl)4]Cl2]
guanine; CV, 10 μM complex
  Voltammetry peak potential: 0.9956 mV
guanine; CV, 40 μM complex
  Voltammetry peak potential: 1.0133 mV
guanine; CV, 100 μM complex
  Voltammetry peak potential: 1.0753 mV
guanine; SWV, 10 μM complex
  Voltammetry peak potential: 0.9948 mV
guanine; SWV, 40 μM complex
  Voltammetry peak potential: 1.025 mV
guanine; SWV, 100 μM complex
  Voltammetry peak potential: 1.0502 mV
[1]; CV, 10 μM complex
  Voltammetry peak potential: 0.7257 mV
[1]; CV, 40 μM complex
  Voltammetry peak potential: 0.7434 mV
[1]; CV, 100 μM complex
  Voltammetry peak potential: 0.7478 mV
[1]; SWV, 10 μM complex
  Voltammetry peak potential: 0.7137 mV
[1]; SWV, 40 μM complex
  Voltammetry peak potential: 0.7388 mV
[1]; SWV, 100 μM complex
  Voltammetry peak potential: 0.7489 mV

## C[N+](C)=C1[S][Au-]2([S]1)[n+]1ccc[n+]3c1-c1[n+]2ccc[n+]1[Au-]31[S]C(=[N+](C)C)[S]1.[Cl-].[Cl-].[Cl-].[Cl-] [C6, [Au2(BPM)(DMDTC)2]Cl4]
[1]; CV, 10 μM complex
  Voltammetry peak potential: 0.7301 mV
[1]; CV, 40 μM complex
  Voltammetry peak potential: 0.739 mV
[1]; CV, 100 μM complex
  Voltammetry peak potential: 0.7434 mV
[1]; SWV, 10 μM complex
  Voltammetry peak potential: 0.7187 mV
[1]; SWV, 40 μM complex
  Voltammetry peak potential: 0.7237 mV
[1]; SWV, 100 μM complex
  Voltammetry peak potential: 0.7288 mV

## CC[N+](CC)=C1[S][Au-]2([S]1)[n+]1ccc[n+]3c1-c1[n+]2ccc[n+]1[Au-]31[S]C(=[N+](CC)CC)[S]1.[Cl-].[Cl-].[Cl-].[Cl-] [C7, [Au2(BPM)(DEDTC)2]Cl4]
[1]; CV, 10 μM complex
  Voltammetry peak potential: 0.7257 mV
[1]; CV, 40 μM complex
  Voltammetry peak potential: 0.7567 mV
[1]; CV, 100 μM complex
  Voltammetry peak potential: 0.7832 mV
[1]; SWV, 10 μM complex
  Voltammetry peak potential: 0.7137 mV
[1]; SWV, 40 μM complex
  Voltammetry peak potential: 0.7288 mV
[1]; SWV, 100 μM complex
  Voltammetry peak potential: 0.7338 mV

## [Cl-].[Cl-].[Cl-].[Cl-].c1ccc(C[N+](Cc2ccccc2)=C2[S][Au-]3([S]2)[n+]2ccc[n+]4c2-c2[n+]3ccc[n+]2[Au-]42[S]C(=[N+](Cc3ccccc3)Cc3ccccc3)[S]2)cc1 [C8, [Au2(BPM)(DBDTC)2]Cl4]
[1]; CV, 10 μM complex
  Voltammetry peak potential: 0.7169 mV
[1]; CV, 40 μM complex
  Voltammetry peak potential: 0.7213 mV
[1]; CV, 100 μM complex
  Voltammetry peak potential: 0.7832 mV
[1]; SWV, 10 μM complex
  Voltammetry peak potential: 0.7086 mV
[1]; SWV, 40 μM complex
  Voltammetry peak potential: 0.7137 mV
[1]; SWV, 100 μM complex
  Voltammetry peak potential: 0.7187 mV
